From article PMC10264389 come the findings set out here.

One assay deals with T1, TMX4-V5 (UniProt Q9H1E5).
T1 sequence: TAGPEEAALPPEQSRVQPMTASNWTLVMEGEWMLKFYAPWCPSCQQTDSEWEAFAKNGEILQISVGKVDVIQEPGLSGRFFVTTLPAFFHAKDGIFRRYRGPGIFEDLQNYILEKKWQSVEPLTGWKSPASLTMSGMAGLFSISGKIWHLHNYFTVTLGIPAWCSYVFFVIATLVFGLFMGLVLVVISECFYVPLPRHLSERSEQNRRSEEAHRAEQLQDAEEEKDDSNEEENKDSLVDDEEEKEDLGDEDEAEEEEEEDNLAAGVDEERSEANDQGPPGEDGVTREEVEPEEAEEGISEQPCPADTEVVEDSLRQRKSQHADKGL
Nature of the assay: co-IP; HEK293 co-transfected with HALO-NESPRIN3α, GFP-SUN1 and TMX4-V5 or TMX4C67A-V5; immunoisolation from lysates with anti-V5 antibody; non-reducing gel; western blot with anti-V5, anti-HALO and anti-GFP; mixed disulfides.

In the next assay the target is T2, HALO-NESPRIN3α (UniProt Q4FZC9).
T2 sequence: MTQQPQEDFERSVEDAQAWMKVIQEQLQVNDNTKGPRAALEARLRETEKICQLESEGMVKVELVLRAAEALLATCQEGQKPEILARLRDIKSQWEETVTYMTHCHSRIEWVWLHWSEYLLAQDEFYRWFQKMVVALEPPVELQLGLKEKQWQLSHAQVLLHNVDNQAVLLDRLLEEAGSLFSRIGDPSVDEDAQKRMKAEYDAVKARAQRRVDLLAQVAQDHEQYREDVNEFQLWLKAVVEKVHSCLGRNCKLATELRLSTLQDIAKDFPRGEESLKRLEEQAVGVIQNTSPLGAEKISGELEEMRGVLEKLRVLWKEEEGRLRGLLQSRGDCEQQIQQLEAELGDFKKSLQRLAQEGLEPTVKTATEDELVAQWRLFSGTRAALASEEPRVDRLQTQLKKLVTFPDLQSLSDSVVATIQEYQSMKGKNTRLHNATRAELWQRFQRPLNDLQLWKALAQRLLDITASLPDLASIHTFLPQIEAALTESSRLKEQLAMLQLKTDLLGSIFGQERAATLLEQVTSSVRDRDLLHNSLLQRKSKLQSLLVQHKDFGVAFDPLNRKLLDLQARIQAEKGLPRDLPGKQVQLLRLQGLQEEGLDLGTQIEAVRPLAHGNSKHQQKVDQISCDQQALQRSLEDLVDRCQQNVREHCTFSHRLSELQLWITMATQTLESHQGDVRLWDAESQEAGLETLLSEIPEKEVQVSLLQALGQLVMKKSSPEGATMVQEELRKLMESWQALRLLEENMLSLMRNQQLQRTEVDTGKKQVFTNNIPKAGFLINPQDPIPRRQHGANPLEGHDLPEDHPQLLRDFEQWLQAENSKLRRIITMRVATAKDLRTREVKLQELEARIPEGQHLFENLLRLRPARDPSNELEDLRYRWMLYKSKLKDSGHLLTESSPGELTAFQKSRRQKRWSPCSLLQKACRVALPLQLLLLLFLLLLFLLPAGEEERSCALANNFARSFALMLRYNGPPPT
Description: co-IP; HEK293 co-transfected with HALO-NESPRIN3α, GFP-SUN1 and TMX4-V5 or TMX4C67A-V5; HALO-NESPRIN3α isolated with HALO-Trap agarose beads, 2 h at 4 °C; non-reducing and reducing gels; western blot with anti-V5 and anti-HALO. On the technique in general: A western blot detects proteins with antibodies after separation by electrophoresis.

No constants are given. Whether binding was seen depends on the method and setting. Binding seen in cells or lysates may run through a third protein. Some results given as binding are weak or reduced against the parent protein; the word gives no strength. Tags and fused reporters may be left off the sequences shown.

B1: HALO-NESPRIN3α (protein, UniProt Q4FZC9 1-975)
chain: MTQQPQEDFERSVEDAQAWMKVIQEQLQVNDNTKGPRAALEARLRETEKICQLESEGMVKVELVLRAAEALLATCQEGQKPEILARLRDIKSQWEETVTYMTHCHSRIEWVWLHWSEYLLAQDEFYRWFQKMVVALEPPVELQLGLKEKQWQLSHAQVLLHNVDNQAVLLDRLLEEAGSLFSRIGDPSVDEDAQKRMKAEYDAVKARAQRRVDLLAQVAQDHEQYREDVNEFQLWLKAVVEKVHSCLGRNCKLATELRLSTLQDIAKDFPRGEESLKRLEEQAVGVIQNTSPLGAEKISGELEEMRGVLEKLRVLWKEEEGRLRGLLQSRGDCEQQIQQLEAELGDFKKSLQRLAQEGLEPTVKTATEDELVAQWRLFSGTRAALASEEPRVDRLQTQLKKLVTFPDLQSLSDSVVATIQEYQSMKGKNTRLHNATRAELWQRFQRPLNDLQLWKALAQRLLDITASLPDLASIHTFLPQIEAALTESSRLKEQLAMLQLKTDLLGSIFGQERAATLLEQVTSSVRDRDLLHNSLLQRKSKLQSLLVQHKDFGVAFDPLNRKLLDLQARIQAEKGLPRDLPGKQVQLLRLQGLQEEGLDLGTQIEAVRPLAHGNSKHQQKVDQISCDQQALQRSLEDLVDRCQQNVREHCTFSHRLSELQLWITMATQTLESHQGDVRLWDAESQEAGLETLLSEIPEKEVQVSLLQALGQLVMKKSSPEGATMVQEELRKLMESWQALRLLEENMLSLMRNQQLQRTEVDTGKKQVFTNNIPKAGFLINPQDPIPRRQHGANPLEGHDLPEDHPQLLRDFEQWLQAENSKLRRIITMRVATAKDLRTREVKLQELEARIPEGQHLFENLLRLRPARDPSNELEDLRYRWMLYKSKLKDSGHLLTESSPGELTAFQKSRRQKRWSPCSLLQKACRVALPLQLLLLLFLLLLFLLPAGEEERSCALANNFARSFALMLRYNGPPPT
As for B1, the binding result with TMX4-V5 is listed as “binds”.

B2: TMX4-V5 (enzyme, UniProt Q9H1E5 24-349)
chain: TAGPEEAALPPEQSRVQPMTASNWTLVMEGEWMLKFYAPWCPSCQQTDSEWEAFAKNGEILQISVGKVDVIQEPGLSGRFFVTTLPAFFHAKDGIFRRYRGPGIFEDLQNYILEKKWQSVEPLTGWKSPASLTMSGMAGLFSISGKIWHLHNYFTVTLGIPAWCSYVFFVIATLVFGLFMGLVLVVISECFYVPLPRHLSERSEQNRRSEEAHRAEQLQDAEEEKDDSNEEENKDSLVDDEEEKEDLGDEDEAEEEEEEDNLAAGVDEERSEANDQGPPGEDGVTREEVEPEEAEEGISEQPCPADTEVVEDSLRQRKSQHADKGL
Regarding B2, the binding entry with HALO-NESPRIN3α is “binds”.
